14 molecules from the odorant receptor screen of Mainland et al. (2015) can be followed below.

What all share (test): odorant receptor activation (CRE luciferase / Renilla) (fold of no-odor wells); higher = more activation
Holding throughout (conditions): 100 µM

Test [1] has as its system OR5AN1 clone 1245.
Test [2] concerns OR5AP2 clone 1209.
The subject of test [3] is OR5AR1 clone 1207.
Test [4] relates to OR5AS1 clone 1135.
Test [5] relates to OR5AU1 L66F/I248V clone 1421.
The subject of test [6] is OR5AU1 clone 1344.
The test system of test [7] is OR5B17 clone 1220.
Test [8] concerns OR5B2 M200T clone 1246.
In test [9] the test system is OR5B21 I279F clone 1482.
The subject of test [10] is OR5B3 clone 1138.
Test [11] deals with OR5C1 clone 1425.
The subject of test [12] is OR5D14 clone 1230.
Test [13] deals with OR5D18 N136D clone 1203.
In test [14] the test system is OR5F1 S294N clone 1148.
In test [15] the test system is OR5H1 I153L/T181I clone 1473.
Test [16] relates to OR5H1 clone 1471.
The test system of test [17] is OR5H14 G64R/Y189C clone 1472.
Test [18] relates to OR5H2 E11Q/I225V/I281V clone 1466.
The subject of test [19] is OR5H2 clone 1055.
Test [20] deals with OR5H6 clone 1056.

Values joined by “and” are separate entries in the source; they are usually repeats but may differ in a detail not shown here. Identical values can stand only once. Some of the results follow. Each value is one well over the wells without odorant, computed here; the data are noisy.

Consider `CC1CCC(C(C)C)C(O)C1` (single isomer, unassigned; (-)) [(-)-menthol], for which the odorant receptor activation in [1] was 0.796; in [2], 0.763; in test [3] it was 1.14; in [4], 1.06; in [5], 0.885; in test [6], 0.874. Besides, the odorant receptor activation in test [7] was found to be 1.61; in test [8], 0.785; in [9] it was 1.2; in test [10] it was 1.06; in test [11] it was 0.599; in test [12] it was 1.26. In addition, the odorant receptor activation in test [13] turned out to be 0.851; in test [14], 1.17; in [15], 2.29; in test [16], 3.58; in test [17], 1.86; in test [18] it was 1.4. The odorant receptor activation in test [19] came out at 2.74; in [20], 3.59.

On to `CCCCCCCC=CC=O` [2-decenal], for which the odorant receptor activation in test [1] was 1.18; in test [2], 0.556; in [3] it was 1.06; in [4], 0.965; in [5], 1.31; in test [6] it was 1.08. Moreover, the odorant receptor activation in [7] was found to be 1.31; in test [8], 2.18; in test [9], 1.45; in test [10], 1.17; in test [11] it was 0.781; in test [12] it was 1.19. The odorant receptor activation stood at 0.638 in test [13]; 1.24 in test [14]; 1.27 in [15]; 1.91 in test [16]; 2.04 in test [17]; 1.76 in [18]. Also, the odorant receptor activation in test [19] was found to be 4.76; in [20], 4.39.

As to `CC(C)C(=O)O` [isobutyric acid], the odorant receptor activation in test [1] was 1.04 and 1; in test [2], 1.03; in [3], 1.11; in test [4], 0.802; in test [5], 0.818; in [6], 0.99 and 1.2. Moreover, the odorant receptor activation in test [7] was 0.831; in [8], 1.16 and 0.792; in test [9], 0.808 and 0.981; in test [10], 0.991; in test [11] it was 0.808; in [12], 1.2. Besides, the odorant receptor activation in test [13] was 1.27; in test [14], 1.32; in test [15], 0.907 and 0.916; in test [16], 0.982 and 0.904; in test [17], 0.806 and 0.974; in test [18], 1.21 and 1.14. Further, the odorant receptor activation in [19] came out at 1.62; in test [20] it was 1.

Turning to `CCCCCCCCCCC=O` [undecanal], the odorant receptor activation in [1] turned out to be 0.714; in test [2], 0.912; in test [3], 0.893; in test [4] it was 0.984; in test [5], 1.21; in test [6] it was 0.833. The odorant receptor activation amounted to 0.741 in [7]; 0.858 in test [8]; 1.08 in test [9]; 0.868 in test [10]; 0.963 in test [11]; 0.866 in test [12]. Further, the odorant receptor activation in test [13] came out at 1.13; in test [14], 1.02; in [15], 1.04; in [16], 1.2; in test [17], 1.19; in test [18], 0.923. Further, the odorant receptor activation in [19] turned out to be 1.46; in test [20], 1.08.

Consider `COC(=O)c1ccccc1` [methyl benzoate], for which the odorant receptor activation amounted to 0.41 in test [1]; 0.867 in [2]; 0.803 in test [3]; 1.42 in test [4]; 0.864 in test [5]; 0.577 in test [6]. Moreover, the odorant receptor activation in test [7] was 0.703; in test [8] it was 0.779; in [9], 0.699 and 1.18; in test [10], 1.56; in [11], 0.921; in [13], 0.662. Further, the odorant receptor activation in test [14] was 0.789; in test [15] it was 0.734 and 1.14; in test [16], 0.489 and 0.906; in [17], 0.825 and 0.683; in [18], 0.428 and 1.25; in [19], 1.75. Further, the odorant receptor activation in test [20] worked out at 1.69.

Regarding `CCCCCC(C)=O` [2-heptanone], the odorant receptor activation turned out to be 1.08 in test [1]; 0.811 in test [2]; 1.22 in [3]; 1.34 in test [4]; 0.807 in [5]; 0.9 in [6]. Further, the odorant receptor activation in test [7] is 0.967; in test [8] it was 1.64; in test [9] it was 0.695 and 0.699; in [10], 1.42; in [11] it was 0.879; in [13] it was 0.949. For the same molecule, the odorant receptor activation is 0.999 in test [14]; 0.992 and 0.726 in test [15]; 0.671 and 0.5 in test [16]; 1.06 and 0.602 in test [17]; 0.908 and 0.719 in [18]; 0.606 in test [19]. Also, the odorant receptor activation in [20] is 1.36.

For the molecule `CC1COCc2cc3c(cc21)C(C)(C)C(C)C3(C)C` (stereo not drawn) [galaxolide], the odorant receptor activation is 1.17 in [2]; 3.26 in test [3]; 0.772 in test [4]; 2.62 in [5]; 2.25 and 1.36 in test [6]; 1.2 in test [7]. The odorant receptor activation was 1.64 and 4.09 in [8]; 0.887 in test [10]; 2.34 in test [11]; 0.972 in test [12]; 0.967 in [13]; 4.29 in test [14]. Further, the odorant receptor activation was 2.66 and 3.82 in [16]; 1.11 and 3.04 in test [17]; 3.66 in test [19]; 4.62 in [20].

With `CC(C)CC(=O)O` [isovaleric acid], the odorant receptor activation in [1] is 0.751; in test [2] it was 1.12; in test [3], 1.25; in test [4], 1.07; in [5] it was 0.804; in test [6], 0.853. Moreover, the odorant receptor activation in [7] was 0.812; in [8], 0.859; in [9], 1.01; in [10], 1.05; in test [11], 0.824; in test [12], 1.33. The odorant receptor activation in [13] was determined as 1.07; in [14] it was 1.04; in [15], 1; in test [16] it was 1.01; in test [17], 1.12; in [18], 0.949. Besides, the odorant receptor activation amounted to 1.55 in test [19] and 1.28 in [20].

Take `CC(=O)OC1CC2CCC1(C)C2(C)C` (stereo not drawn) [isobornyl acetate]: the odorant receptor activation in test [1] was 0.963 and 0.898; in test [2] it was 0.957; in test [3], 1.38; in [4], 1.19; in test [5], 0.914; in test [6], 1.47 and 1.2. The odorant receptor activation in test [7] was 1.04; in test [8], 1.09 and 0.878; in [9], 0.908 and 1.24; in [10], 1.2; in test [11], 1.07; in test [12], 1.2. Moreover, the odorant receptor activation in test [13] was 1.15; in test [14], 1.13; in test [15], 0.956 and 1.1; in [16], 0.664 and 1.06; in [17], 0.854 and 1.08; in test [18], 0.952 and 1.31. For the same molecule, the figures for the odorant receptor activation in test [19] and in [20] were 0.803 and 1.06, respectively.

For `CCCCCCCC=O` [octyl aldehyde], the odorant receptor activation in [1] is 1.05; in test [2] it was 1.37; in test [3], 1.28; in [4], 0.931; in test [5], 0.977; in [6] it was 1.03. Further, the odorant receptor activation in test [7] came to 0.867; in test [8], 0.994; in test [9] it was 1.11; in [10], 0.996; in test [11], 0.834; in test [12] it was 1.14. The odorant receptor activation in test [13] amounted to 1.11; in [14], 0.861; in test [15] it was 0.847; in [16], 1.03; in [17], 0.827; in test [18] it was 1.01. The odorant receptor activation in [19] amounted to 1.11; in test [20], 1.19.

With `C=C(C)C1CC=CCC1` (stereo not drawn) [r-limonene], the odorant receptor activation in [1] was 0.757 and 0.433; in [2], 1.06 and 0.39; in [3], 1.02 and 0.584; in [4] it was 1.19 and 0.612; in test [5], 1.48 and 0.907; in test [6], 0.681 and 0.418. Also, the odorant receptor activation in test [7] is 0.984 and 0.509; in test [8], 0.728 and 0.496; in [9], 1.03 and 0.561 and 0.808; in test [10] it was 1.09 and 0.647; in test [11], 1.26 and 0.845; in test [12], 1.05. The odorant receptor activation in test [14] is 1.24 and 0.524; in [15], 1.05 and 0.706 and 1.12; in [16], 1.13 and 0.452 and 0.901; in test [17] it was 0.898 and 0.683 and 0.628; in [18], 0.852 and 0.431 and 1.04; in [19] it was 1.3 and 1.84. The odorant receptor activation in test [20] is 1.32 and 1.24.

Consider `CC12CCC(C1)C(C)(C)C2=O` (stereo not drawn) [fenchone], for which the odorant receptor activation in [1] came out at 0.985; in test [2] it was 0.993; in test [3] it was 1.14; in test [4] it was 0.958; in [5], 1.13; in test [6], 0.864. Also, the odorant receptor activation in test [7] is 0.783; in test [8], 0.888; in [9], 1.2; in test [10], 1; in [11], 1.16; in [12] it was 1.1. Besides, the odorant receptor activation in test [13] worked out at 0.957; in test [14], 0.894; in test [15], 0.995; in test [16], 1.13; in [17] it was 1.14; in test [18], 1.08. Moreover, the results for the odorant receptor activation in test [19] and in [20] were 1.01 and 1.17, respectively.

Turning to `CC(=O)OCC=C(C)CCC=C(C)C` [geranyl acetate], the odorant receptor activation in test [1] was 0.741 and 1.97; in test [2] it was 0.932; in test [3], 1.21; in test [4], 1.05; in test [5], 1.08; in [6] it was 0.927 and 1.15. Moreover, the odorant receptor activation in test [7] is 0.757; in test [8] it was 0.891 and 1.3; in test [9], 0.74 and 1.63; in test [10], 1.05; in test [11] it was 0.959; in test [12], 1.17. For the same molecule, the odorant receptor activation is 0.973 in test [13]; 1.52 in [14]; 1.02 and 1.39 in [15]; 0.762 and 1.41 in test [16]; 0.766 and 1.32 in test [17]; 0.869 and 1.53 in test [18]. The odorant receptor activation in test [19] was 1.46; in test [20], 1.61.

Regarding `COc1ccccc1O` [guaiacol], the odorant receptor activation in test [1] was 0.658 and 1.77; in test [2] it was 1.15; in [3] it was 1.24; in test [4] it was 0.829; in [5], 0.906; in [6], 0.9 and 0.902. Also, the odorant receptor activation was 0.549 in test [7]; 0.833 and 1.14 in test [8]; 0.928 and 1.12 in test [9]; 1.17 in test [10]; 0.722 in [11]; 1.01 in [12]. Further, the odorant receptor activation in [13] was 0.894; in test [14], 1.04; in test [15] it was 0.835 and 1.18; in test [16] it was 0.594 and 1.15; in test [17], 0.889 and 0.984; in test [18], 1.14 and 1.05. Further, the values for the odorant receptor activation in test [19] and in test [20] were 1.19 and 1.64, respectively.
